Measurements from patent US5079366 (dated 1992).

Assay: general procedure: solution-phase peptide synthesis; DCC/HOBt

Question: Which step yield (late stage modification step) does the source give for “(S)-2-(L-Tyrosyl)amino-6-(3-carbamoyl-1-pyridinium)hexanoylglycyl-L-phenylalanyl-L-leucine ethyl ester chloride hydrochloride” here?
Answer: Its step yield is 78.6%.

Question: With “(S)-2-[N-(tert-Butoxycarbonyl)-L-tyrosyl]amino-6-(3-carbamoyl-1-pyridinium)hexanoylglycyl-L-phenylalanyl-L-leucine ethyl ester chloride” as the substance, how does the step yield (late stage modification step) read?
Answer: Its step yield is 37.9%.

Question: For “O-Benzyl-N-(tert-butoxycarbonyl)-L-tyrosyl-N^ε -benzyloxycarbonyl-L-lysylglycyl-L-phenylalanyl-L-leucine ethyl ester”, which step yield (coupling step) is on record?
Answer: Its step yield is 78.9%.
